PubChem BioAssay AID504793 | Drosophila RNAi Screening Center | 2011
Test: 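Whole-genome screen for parts of the DNA damage checkpoint at G2/M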 (primary screen). System: Drosophila S2R+ cells. Reagent: long dsRNA against Drosophila genes, about 0.25 µg dsRNA per well. Time to read-out: 4 days of dsRNA, then 4 hours of drug before read-out. Challenge: doxorubicin 0.5 µM for 4 hours to cause double-strand breaks, in cells also given a low, harmless dose of dsRNA against nbs to sensitise the assay. Measurement: 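Per-well count of mitotic cells stained for phospho-histone H3 after doxorubicin exposure, used as mitotic index; counts are raw and not normalised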. Reading the numbers: mitotic cells: higher = more cells in mitosis, weaker G2 arrest. Call rule: 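Genes are called active only when high mitotic counts were reproduced with independent dsRNAs and mitosis was checked for delay without damage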. Meaning of the calls: active = confirmed in follow-up tests; inactive = not confirmed.
The deposit covers about 23,000 reagents; below is an unselected part of those that have a named target and a result. Over the whole deposit, 62 (0.27%) were called active. 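Calls come from follow-up tests whose scores are not deposited, so confirmed genes may have low counts here; counts are not normalised per plate.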 Raw values are not corrected between plates. A number with no mark means an inactive call. Reagents against one gene are numbered here. A plus sign joins genes that one reagent is predicted to hit. Reagent sequences are not shown.

Silencing of CG33791 + CG18170 #1 resulted in: mitotic cells, replicate 1 = 11. For CG33791 + CG18170 #2, the values are mitotic cells, replicate 1 = 6. Against CG33791 + CG18170 #3, the entry reads mitotic cells, replicate 1 = 3. After knock-down of shg #1, the screen gave mitotic cells, replicate 1 = 5. For shg #2 the deposit lists mitotic cells, replicate 1 = 5. After knock-down of shg #3, the record shows mitotic cells, replicate 1 = 9.

After knock-down of CNPYb, the screen gave mitotic cells, replicate 1 = 5. Silencing of Ir60d gave: mitotic cells, replicate 1 = 5. With knock-down of tomb + Cap-D3, the screen gave mitotic cells, replicate 1 = 4. After knock-down of Gtpx #1 the results were mitotic cells, replicate 1 = 5. With knock-down of Gtpx #2 the results were mitotic cells, replicate 1 = 11. Knock-down of RpL24 #1 resulted in: mitotic cells, replicate 1 = 4.

With knock-down of RpL24 #2 the results were mitotic cells, replicate 1 = 10. After knock-down of GluRIIC the results were mitotic cells, replicate 1 = 8.

Ordered by “mitotic cells, replicate 1” (ascending): some entries from above.
CNPYb → mitotic cells, replicate 1: 5
shg #3 → mitotic cells, replicate 1: 9
